Data as given in PubChem BioAssay AID1259424 (University of Nebraska Medical Center, 2018)
Purpose: 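Seek colon cancer survival genes behaving like KSR1, using a six-gene signature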 (primary screen). Cell system: human HCT116 colon cancer cells. Knock-down reagent: siRNA pool against human genes, 50 nM. Read-out: 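Six signature mRNAs by branched-DNA multiplex assay, scaled to two housekeeping genes and non-targeting median, log2; matched to mean KSR1 knockdown profile by Pearson correlation and euclidean distance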. Scale: mean correlation with KSR1 profile and KSR1 correlation: higher = expression change more like KSR1 knockdown; mean distance from KSR1 profile: higher = expression change less like KSR1 knockdown.
Here is an unselected part of about 14,000 reagents tested. 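Higher correlation or smaller distance means closer resemblance to KSR1 loss; control wells, including KSR1 knockdowns, recur on many plates.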 Not given: the time to read-out.

| target gene | mean correlation with KSR1 profile | mean distance from KSR1 profile | KSR1 correlation, replicate 1 | KSR1 correlation, replicate 2 | KSR1 correlation, replicate 3 |
| --- | --- | --- | --- | --- | --- |
| SLC25A6 | 0.121 | 2.32 | 0.288 | -0.225 | -0.0548 |
| HCAR1 | 0.0917 | 2.86 | 0.262 | 0.247 | -0.0764 |
| TM4SF1 | -0.28 | 1.56 | -0.189 | -0.177 | -0.598 |
| ADAM19 | 0.492 | 0.952 | 0.613 | 0.635 | 0.223 |
| SLC8A1 | -0.262 | 1.28 | -0.378 | -0.35 | 0.181 |
| SPOUT1 | -0.802 | 1.79 | -0.836 | -0.753 | -0.47 |
| DLL4 | -0.402 | 1.16 | -0.204 | -0.187 | -0.552 |
| RNF150 | -0.54 | 2.69 | -0.647 | -0.45 | -0.0143 |
| PDHA1 | 0.21 | 2.61 | 0.251 | 0.17 | 0.15 |
| MTMR8 | 0.0505 | 1.54 | 0.195 | -0.405 | 0.513 |
| RPS7 | -0.0799 | 2.05 | -0.186 | -0.129 | -0.00455 |
| HOXC11 | 0.736 | 0.814 | 0.805 | 0.621 | 0.697 |
| RALBP1 | -0.561 | 2.5 | -0.648 | -0.629 | -0.408 |
| RAD52 | -0.381 | 1.87 | -0.522 | -0.32 | -0.303 |
| POLR2K | -0.591 | 3.52 | -0.296 | -0.558 | -0.588 |
| ARV1 | -0.401 | 1.78 | -0.592 | -0.411 | -0.105 |
| LINC00839 | -0.0538 | 3.23 | -0.0771 | -0.0608 | -0.27 |
| TRMT2A | -0.181 | 3.43 | -0.196 | -0.493 | -0.235 |
| TCIRG1 | -0.215 | 2.92 | -0.146 | -0.13 | -0.287 |
| MMP21 | -0.541 | 1.84 | -0.746 | -0.427 | -0.548 |
| CCL3L1 | -0.84 | 1.55 | -0.641 | -0.886 | -0.849 |
| P4HB | 0.355 | 1.75 | 0.337 | 0.361 | 0.303 |
| PLEK2 | -0.383 | 2.49 | -0.584 | -0.456 | -0.342 |
| WNT7B | -0.184 | 2.65 | -0.0802 | -0.213 | -0.36 |
| NPM1 | -0.151 | 2.29 | -0.0653 | -0.307 | -0.176 |
| MED4 | -0.579 | 2.52 | -0.45 | -0.773 | -0.625 |
| ELMO1 | -0.132 | 1.94 | -0.399 | -0.174 | 0.553 |
| HMGN1 | 0.0798 | 1.89 | -0.0538 | -0.024 | 0.179 |
| GCM1 | 0.268 | 2.58 | 0.495 | 0.432 | -0.0826 |
| PNRC1 | 0.569 | 1.61 | 0.298 | 0.589 | 0.505 |
| NPY1R | -0.2 | 4.2 | 0.186 | 0.133 | -0.309 |
| NUDT6 | -0.0652 | 2.49 | 0.000399 | -0.238 | 0.0284 |
| ADAMTS20 | 0.0677 | 1.68 | 0.105 | -0.0064 | -0.0466 |
| IL9 | 0.288 | 1.49 | 0.223 | 0.221 | 0.405 |
| ZNF577 | 0.192 | 3.92 | 0.0881 | 0.173 | 0.123 |
| MDC1 | -0.372 | 2.84 | -0.271 | -0.612 | -0.447 |
| PSMD6 | 0.175 | 3.89 | 0.2 | 0.381 | -0.176 |
| RTCA | -0.29 | 1.48 | -0.111 | -0.274 | -0.543 |
| CYP19A1 | -0.432 | 2.89 | -0.269 | -0.452 | -0.704 |
| LPP | -0.0307 | 1.94 | 0.105 | -0.346 | -0.324 |
| CCNB1IP1 | -0.575 | 2.98 | -0.715 | -0.342 | -0.375 |
| CMTR2 | 0.271 | 1.54 | 0.0395 | 0.251 | 0.449 |
| FLG | -0.262 | 3.17 | -0.0579 | -0.458 | -0.23 |
| COL7A1 | -0.308 | 1.85 | 0.00986 | -0.46 | -0.439 |
| ADPRM | -0.892 | 1.85 | -0.934 | -0.694 | -0.515 |
| NPY4R | -0.0556 | 2.33 | -0.0502 | 0.13 | -0.075 |
| AKAP17A | -0.595 | 3.59 | -0.547 | -0.582 | -0.618 |
| ZBED1 | 0.0856 | 1.61 | 0.236 | 0.269 | 0.0526 |
| GABRG1 | 0.662 | 0.855 | 0.505 | 0.557 | 0.719 |
| HCN3 | -0.09 | 2.08 | -0.0682 | -0.215 | 0.0297 |

A run of entries taken from the entries so far, as a working copy:
| target gene | mean correlation with KSR1 profile | mean distance from KSR1 profile | KSR1 correlation, replicate 1 | KSR1 correlation, replicate 2 | KSR1 correlation, replicate 3 |
| --- | --- | --- | --- | --- | --- |
| POLR2K | -0.591 | 3.52 | -0.296 | -0.558 | -0.588 |
| ARV1 | -0.401 | 1.78 | -0.592 | -0.411 | -0.105 |
| LINC00839 | -0.0538 | 3.23 | -0.0771 | -0.0608 | -0.27 |
| TRMT2A | -0.181 | 3.43 | -0.196 | -0.493 | -0.235 |
| TCIRG1 | -0.215 | 2.92 | -0.146 | -0.13 | -0.287 |
